No constants are given. Whether binding was seen depends on the method and setting. Binding seen in cells or lysates may run through a third protein. Some entries that bind do so weakly or less than the wild type.
Assays:
[1] = biological target: CtBP2-Gluc-N / CtBP2-Gluc-C (CtBP-Gluc-PCA reporter) (human) (UniProt P56545); experiment: split reporter; Gluc-PCA in 293 cells co-transfected with the Gluc-N and Gluc-C fusions, luminance read; MTOB treatment gave a dose-dependent reduction of the signal
[2] = biological target: CtBP2-W324G EGFP-PCA reporter (human) (UniProt P56545); experiment: split reporter; EGFP-PCA: CtBP fused with the EGFP N-terminus or C-terminus, EGFP signal imaged in live cells; cell line of Fig. 1H not stated; CtBP2 reporter also in SKOV3 cells treated with 2-DG, 3-BP, FK866 or 30 uM cisplatin (signal reduced) or metformin (signal increased)

Substance	binding [1]	binding [2]
CtBP2-Gluc-N / CtBP2-Gluc-C (CtBP-Gluc-PCA reporter) (from UniProt P56545 1-445)	binds weakly	–
CtBP2-W324G EGFP-PCA reporter (from UniProt P56545 1-445)	–	no binding

Reference: paper PMC10158025
